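Cultured KMM1 myeloma cells are exposed to compounds for two days, then surviving cells are gauged by an ATP luminescent signal.
Each compound runs as a dilution series from about 0.00003 µM, mostly topping out near 45.8 µM (up to 92 µM for some).
The number is the fitted AC50 potency for loss of viability; a lower value means a more potent compound.
Calls follow the curve class and fit quality; inconclusive means a weak, poorly fitted, top-dose-only or opposite-direction effect, scoring 1 to 39.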

Values are in µM.
All entries here are filed as inconclusive.
Only part of the assay is shown, chiefly results filed as inconclusive.
Potencies fitted to partial, single-point or poorly fitting curves are rough.
Some entries filed as inconclusive have a full curve.
The first word of each remark tells which way the curve ran; it can be opposite to the aim of the assay.
Activity scores are not listed here.

* Nc1nc(OCc2ccccc2)c2[nH]cnc2n1 | Potency 11.77 µM (cytotoxic, partial curve)
* NC(N)=NC(N)=NCCc1ccccc1 | Potency 6.619 µM (cytotoxic, full curve)
* NNCCc1ccccc1 | Potency 0.0418 µM (rising, full curve, poor fit)
* O=C1Nc2ccc(Cl)cc2C(C#CC2CC2)(C(F)(F)F)O1 (configuration not stated) | Potency 37.22 µM (cytotoxic, single point)
* CCC(=O)NC[C@H](Cc1ccc(OCCc2nc(-c3ccccc3)oc2C)cc1)NC(C)=CC(=O)c1ccc(C(F)(F)F)cc1 | Potency 0.3317 µM (cytotoxic, full curve, poor fit)
* CC12CC3CC(C)(C1)CC(N)(C3)C2 | Potency 11.77 µM (cytotoxic, single point)
* OCCn1cc(-c2cnc3nnn(Cc4ccc5ncccc5c4)c3n2)cn1 | Potency 26.35 µM (cytotoxic, single point)
* NC(=O)c1ccc(-c2nc(-c3ccc4c(c3)OCCO4)c(-c3ccccn3)[nH]2)cc1 | Potency 18.65 µM (cytotoxic, partial curve)
* CCn1cc(C(=O)O)c(=O)c2cc(F)c(N3CCN(C)CC3)cc21 | Potency 20.93 µM (cytotoxic, partial curve, poor fit)
* Cc1nc(C(=O)NCC(=O)O)c(O)c2ccc(Oc3ccccc3)cc12 | Potency 20.93 µM (cytotoxic, partial curve, poor fit)
* CN(C)c1ccc(C(=C2C=CC(=[N+](C)C)C=C2)c2ccc(N(C)C)cc2)cc1 | Potency 0.0935 µM (cytotoxic, full curve, poor fit)
* CCCCCCNC(=O)n1cc(F)c(=O)[nH]c1=O | Potency 9.35 µM (cytotoxic, partial curve, poor fit)
* C[C@]12CC[C@H](O)CC1=CC[C@H]1[C@H]3CCC(=O)[C@@]3(C)CC[C@@H]12 | Potency 23.48 µM (cytotoxic, partial curve)
* CC1COc2c(N3CCN(C)CC3)c(F)cc3c(=O)c(C(=O)O)cn1c23 (configuration not stated) | Potency 20.93 µM (cytotoxic, partial curve, poor fit)
* CCOc1cc(C=C2C(=O)N(c3ccccc3)N=C2C)cc(Cl)c1OCC(=O)OC | Potency 16.63 µM (cytotoxic, partial curve)

Some entries from above, unchanged:

Result for Nc1nc(OCc2ccccc2)c2[nH]cnc2n1 was Potency 11.77 µM (cytotoxic, partial curve).
Result for C[C@]12CC[C@H](O)CC1=CC[C@H]1[C@H]3CCC(=O)[C@@]3(C)CC[C@@H]12 was Potency 23.48 µM (cytotoxic, partial curve).

Data taken from PubChem BioAssay AID1918960, deposited by NCATS (2023).